Results as given in patent US9005575B2, “Arg-Gly-Asp-conjugated alpha-melanocyte stimulating hormone hybrid peptide for use in diagnosing and treating melanoma, including metastatic melanoma and methods related to same” (STC.UNM, priority 2009, dated 2015).
Some of these results come from one statement about several compounds together. Positions of bridges follow the written chain, without caps; N, C: chain ends. Non-standard residues stand in square brackets, D forms with d. Residues, ends and D or L forms follow the SMILES beside them.

Tested on: B16/F1 murine melanoma cells
Assay: Specificity of cellular uptake (peptide blockade)
Format: cell-based
Conditions: 0.1 μM of blocking peptide, 25° C., 120 min
Protocol: The specificity of cell binding was determined by incubating ^99mTc-RGD-Lys-(Arg^11)CCMSH with or without non-radioactive peptides. After being washed once with binding media, B16/F1 cells in 24-well cell culture plates were incubated with approximately 200,000 cpm of HPLC purified ^99mTc-RGD-Lys-(Arg^11)CCMSH at 25° C. for 120 min (n=4) in the presence of 0.1 μM of RGD-Lys-(Arg^11)CCMSH, NDP-MSH, (Arg^11)CCMSH or RGD in 0.5 ml of binding media, respectively. The reaction media were aspirated after the incubation. The cells were rinsed twice with 0.5 ml of ice-cold pH 7.4, 0.2% BSA/0.01 M PBS and lysed in 0.5 ml of 1 N NaOH for 5 min. The activities associated with cells were measured in a gamma counter. Statistical analysis was performed using the Student's t-test for unpaired data.
The specificity of cellular uptake was determined by incubating ^99mTc-RGD-Arg-(Arg^11)CCMSH with or without non-radioactive peptides. After being washed once with binding medium, B16/F1 cells in 24-well cell culture plates were incubated with approximately 200,000 cpm of HPLC purified ^99mTc-RGD-Arg-(Arg^11)CCMSH at 25° C. for 120 min (n=3) in the presence of 0.1 μM of RGD-Arg-(Arg^11)CCMSH, (Arg^11)CCMSH, RGD or no peptide blockade in 0.5 mL of binding medium, respectively. The reaction medium was aspirated after the incubation. […] The activities associated with cells were measured in a gamma counter.

| Compound | Decrease of cellular uptake of ^99mTc-RGD-Arg-(Arg^11)CCMSH by peptide blockade (listed as RGD-Arg-(Arg^1)CCMSH) | Decrease of cellular uptake of ^99mTc-RGD-Arg-(Arg^11)CCMSH by peptide blockade |
| --- | --- | --- |
| CC(C)[C@H](NC(=O)[C@@H]1CCCN1C(=O)[C@H](CCCNC(=N)N)NC(=O)[C@H](CS)NC(=O)[C@H](Cc1c[nH]c2ccccc12)NC(=O)[C@H](CCCNC(=N)N)NC(=O)[C@@H](Cc1ccccc1)NC(=O)[C@H](Cc1c[nH]cn1)NC(=O)[C@H](CCC(=O)O)NC(=O)[C@H](CS)NC(=O)[C@H](CS)NC(=O)[C@H](CCCNC(=N)N)NC(=O)[C@@H]1CC(=O)N[C@@H](CCCNC(=N)N)C(=O)NCC(=O)N[C@@H](CC(=O)O)C(=O)N[C@H](Cc2ccc(O)cc2)C(=O)N1)C(N)=O [RGD-Arg-(Arg^11)CCMSH] (RGD[dY]DRCCEH[dF]RWCRPV-NH2; lactam N-5; C-terminus assumed) | 76-78% | – |
| [Cys^3,4,10, D-Phe^7, Arg^11]α-MSH3-13 [(Arg^11)CCMSH, reference compound] | – | 76-78% |
